From the RNAGym collection of RNA variant scans (doi:10.1126/science.aae0568) come the findings set out here.

This sample is rich in variants without activity.

Sequences and labels used below:
B1: tRNA (parent)
chain: GUUCCGUUGGCGUAAUGGUAACGCGUCUCCCUCCUAAGGAGAAGACUGCGGGUUCGAGUCCCGUACGGAACG

The variants in this series derive from B1. Nature of the series: yeast fitness relative to wild type (ratio to wild type); higher = fitter; tRNA-Arg(CCU), competitive growth, 37 C, YPD. In outline: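 Amplicons of the tRNA-Arg(CCU) gene were sequenced, 100-nucleotide paired-end, from the start population and from each end population of a pooled yeast competition. The competition, in six parallel replicates, lasted 24 hours in YPD at 37°C. Fitness relative to wild type was calculated from changes in genotype frequencies. Genotypes had to have ≥ 100 starting reads, and estimates < 0.5 were set to 0.5.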
On to GUUCCGUUGGCGUAAUGGUAACGCGUCUCCCUGCUAAGGAGUAGACUGCGGGUUCUAGUCCUGUACGGAACG [C33G A42U G56U C62U], for which the yeast fitness was not above 0.5.

GUUCCGUUGGCGUAAUGGUAACGCGUCUCCCUGCUAAGGAGGAGACUGCGGAUUCGAGUCCGGUACGGAUCG [C33G A42G G52A C62G A70U]: the yeast fitness was not above 0.5.

Take GUUCCGUUGGCGUAAUGGUAACGCGUCCCCCUCCUAAGCAGAAGACUGCGGGUUCGAGUCCGGUAAGGAACG [U28C G39C C62G C66A]: the yeast fitness is not above 0.5.

On to GAUCCGUUGGCGUUAUGGUAGCGCGUCUCCCUCCUAAGGAGAAGAGUGCGGGUUCGUGUCCCGUACGGCACG [U2A A14U A21G C46G A57U A69C], for which the yeast fitness is not above 0.5.

On to GUUCCGUUGGCGUAAUGGUAACGCGUCUCCCUCCUAAGGAGCAGACUACAGGUUCGAGUCGCGUACGGAACG [A42C G48A G50A C61G], for which the yeast fitness amounted to 0.553.

Consider GUUCCGUUGGCGUAAUGGUAACGCGUGUCCCUCCUAAGGAGAAGACUGCGGGUCCGAGUCCCGUGCGGAACG [C27G U54C A65G], for which the yeast fitness was not above 0.5.

Regarding GUUCCGUUGGCGUAAUGGUAACGCGUCUCCCUCCUAAGGAGAAGAUUGCGGGUUCGAGUCCCGUACGAAACG [C46U G68A], the yeast fitness came out at 0.9.

On to GUUCCGUUGGCGUAAUGGUAACGCGACUCCCUCUUAAGGAGAUGACUGCGGGUUCGAGUCCCGUAGGGAACG [U26A C34U A43U C66G], for which the yeast fitness was found to be 0.628.

For the variant GUUCCGUUGGCGUAAUGGUAACACGUCUGCCCCCUAAGGAGAAGUCUGCGGGUUCGAGUGUCGUACGGGACG [G23A C29G U32C A45U C60G C61U A69G], the yeast fitness is not above 0.5.

GUUCCAUUGGUGCAAUGGUAACGCGUCUCCCUCCUAAGGAGAAGUUUGCGGGCUCGAGUCCCGUACGGAACG [G6A C11U U13C A45U C46U U53C]: the yeast fitness was not above 0.5.

As to GUUCAGUUGGCGUAAUGGUAACACGUCUCCCUCCUAAGGAGCAGACGGCGGGUUCGAGUCCCGUACGGAACG [C5A G23A A42C U47G], the yeast fitness is not above 0.5.

On to GUUCCAUUGCCGUAAUGGUGAUGCGUCUCCCUCCUAAGGAGAAGACUGCAGGUUCGAAUCCCGUACGGAACG [G6A G10C A20G C22U G50A G58A], for which the yeast fitness was not above 0.5.

As for GUUCCGUUGGCGUAAUGGUAUCGCGUCUCCCGCCUAAGGAGAAGACUCUGGGUUCGAGUCCCGUACGGAACG [A21U U32G G48C C49U], the yeast fitness was not above 0.5.

GUUCGGUUGCCGUAAUGGUAACGCGUCUCCCCCCUAAGGAGAAGACUGCGGCUUCGAGACCCGUACGGAACG [C5G G10C U32C G52C U59A]: the yeast fitness is not above 0.5.

For GUUCCGUUGGCGUAGUGGUAACGCGUCUCCCUCCUAACGAGAAGACUGCGGGUUCGAGUCCCGAGCGACACG [A15G G38C U64A A65G G68A A69C], the yeast fitness is not above 0.5.

For the variant GUUCCGUUGGCGUAAUGGUAACCCGUCUCCGUUCUAAGGAGGAGACUGCGGCUUCGACUCCCGUACGGAACG [G23C C31G C33U A42G G52C G58C], the yeast fitness is not above 0.5.

Take GUUCCGUCGGCGUAAUGGUAACGCGUCUCCCGCCUAAGGAGAAGGCUGUGGGUUCGAGUCCCGUACGGAUCG [U8C U32G A45G C49U A70U]: the yeast fitness is not above 0.5.

Turning to GUUCCGUUGGCGUAAUGGUAACGCGUCUCCCUCCUAAGGAGAAGACUGCGGGUUCGAGUCCUCUACGGACCG [C62U G63C A70C], the yeast fitness was not above 0.5.

For the variant GUUCCGUUGGCGUAAUGGUAACGCGUCUCCCUCCUAAGGAAAAGCCUGCGGGUUCGAGUCCCGUUCGGAACG [G41A A45C A65U], the yeast fitness is not above 0.5.

Consider GUUCCGUUGGCGAAAUGGUAACGCGUCUCCCUCCUAAGGAGAAGACAGCGGGUUCGAGUCCCGAACGGAACG [U13A U47A U64A], for which the yeast fitness is not above 0.5.

As for GUUCCGUUGGCGUAAUGGUGGCGCGUCUGCCUCCUAAGGAGACGACUGCGGGUUCGAGUCGCGUACGGAACG [A20G A21G C29G A43C C61G], the yeast fitness is not above 0.5.

For the variant GUUCCGUUGGCAUAAUGGUAACGCGUCUGCCUCGUAAGGAGAAGACUGCGGGUUCGAGUCCCGUACGGAACG [G12A C29G C34G], the yeast fitness was not above 0.5.

For the variant GUUCCGGUGGCGUAAUGGUAACGCGUAUCCCUCCUAAGGAGAAGUCUGCGGGGUCGAGUCCCGUCCGGAACG [U7G C27A A45U U53G A65C], the yeast fitness is not above 0.5.

Consider GUUCCGUUGGCGUAAUGGUAUCGCGUCUCGCUCCUAAGGAGAAGGCUGCGGGUUCGAGUCCCGUACGGAACG [A21U C30G A45G], for which the yeast fitness is not above 0.5.

Take GUUCGGUUGCCGUAAUGGUAACGCGUCUUCCUCCUAAGGAGAAGACUGCGGGUUCGAGUCUCGUACGGUACG [C5G G10C C29U C61U A69U]: the yeast fitness is not above 0.5.

For GUUCCGUUGGGGUAUUGGUAACGCGUCUCCCUCCUAAGGAGAAGACUGCGGGUUCGCGUCCCGUACGGAACG [C11G A15U A57C], the yeast fitness is not above 0.5.

Take GUUCCGCUGGCGUAAUGAUAACGCGUCUCCAUCCUAAGGAGAAGACUGCGGGUUCGAGUCCCGUACGGUACG [U7C G18A C31A A69U]: the yeast fitness is not above 0.5.

Consider GUUCCGUUGGCGUAAUGGUAACGCGUCUCCCUCCUAUGGAGAAAACUGCGGGUUCGAGUCCCGUAAGGAACG [A37U G44A C66A], for which the yeast fitness is not above 0.5.

Take GUUCCGUUGGCGUAAUGGUAACGCAUCUCCCUCCUUAGGAGAAGCCUGCGGGUACGAGUCCCGUACGGAACG [G25A A36U A45C U54A]: the yeast fitness was not above 0.5.

For the variant GUUCCGUUGGCGUAAUGGUAACGCAUCUUCCUCCUAAGGAGAAGACUGCGCGUUCGAGUCCCGUACGGAUCG [G25A C29U G51C A70U], the yeast fitness is not above 0.5.

On to GUUCCGGUGGCGUAAUGGUAACGCGUCUCCCUCCUAAGCAGAAGACUGCGGGUUCGGGUCCCGUACGGAACG [U7G G39C A57G], for which the yeast fitness is not above 0.5.

On to GUUCAGUUGGCGUAAUGGUAACGCGUCUCCCUCUUAAGGGGAAGACUGCGGGUUCGAGUGCCAUACGGAACG [C5A C34U A40G C60G G63A], for which the yeast fitness is not above 0.5.

Turning to GCUCCGUUGGCGUAAUGGCAACGCGUCUCCCUCCUAGGGAGAAGACUGAGGGUUCGAGUCCCGUACGGAACG [U2C U19C A37G C49A], the yeast fitness is not above 0.5.

For GUUCCGUUGGCGUAACGGUACCGCGUCUCCCUCCUAGGGAGCAGACUGCGGGUUAGAGUCCCGUACGGAACG [U16C A21C A37G A42C C55A], the yeast fitness is not above 0.5.

On to GUUCGGUUGGCGUAAUGGUAACGCAUCUCCCUCCUAAGGAGCAGACUGCGGGUUCGAGUCCCGUACGAAACG [C5G G25A A42C G68A], for which the yeast fitness is not above 0.5.

As for GUUCCGUUGACGUAAUGGUAACGCGUCUCCCUCCUAAGGAGAAGACUGCGGGUUCGAGUGCCGUACGGAACG [G10A C60G], the yeast fitness worked out at 0.531.

Consider GUUCCGUUGGCGUAAUGGUAACGCGUCUCCCUCCUAAGGAGAAGACUGCGGGUUCGCGUGCCGUACGGAACG [A57C C60G], for which the yeast fitness was 0.503.

In the case of GUUGCGUUGGCGUAAUGGUACAGCGUGUCCCUCUUAAGGAGAAGACUGUGGGUUCAAGUCCCGUACCGAACG [C4G A21C C22A C27G C34U C49U G56A G67C], the yeast fitness is not above 0.5.
